Results deposited as PubChem BioAssay AID1259405 (NCATS, 2018).

Test: 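Knock-downs that lift recombinant protein yield in hamster ovary cells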 (primary screen)
Cell system: Chinese hamster CHO-K1 ovary cells with stable secreted eGFP expression
Knock-down reagent: single siRNA against mouse genes, 0.8 pmol siRNA per well (2 µl of 400 nM stock)
Duration: 3 days
Read-out: 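Per-well intracellular GFP measured by laser scanning cytometry, plus viability from ATP luminescence, each relative to plate median of non-targeting control wells, in %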
Direction: GFP, % of control: higher = more GFP per well, higher productivity; viability (ATP), % of control: higher = more viable cells (more ATP)
Hit rule: 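a knock-down is called active if GFP reaches 120% or more of non-targeting control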
In all, the deposit lists about 50,000 reagents; shown is a part drawn at random. About 4,000 of them (8%) count as active. 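Mouse siRNA library applied to hamster cells; one well for each siRNA.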 Reagents against one gene are numbered here.

The opening 3 entries as a preview:
Tvp23b (trans-golgi network vesicle protein 23B) #1
- GFP, % of control: 88.4
- viability (ATP), % of control: 70.8
- activity call: inactive

Tvp23b (trans-golgi network vesicle protein 23B) #2
- GFP, % of control: 37.6
- viability (ATP), % of control: 42.9
- activity call: inactive

Tvp23b (trans-golgi network vesicle protein 23B) #3
- GFP, % of control: 79.5
- viability (ATP), % of control: 80.1
- activity call: inactive

Main list, from the start:
Tvp23b (trans-golgi network vesicle protein 23B) #1
- GFP, % of control: 88.4
- viability (ATP), % of control: 70.8
- activity call: inactive

Tvp23b (trans-golgi network vesicle protein 23B) #2
- GFP, % of control: 37.6
- viability (ATP), % of control: 42.9
- activity call: inactive

Tvp23b (trans-golgi network vesicle protein 23B) #3
- GFP, % of control: 79.5
- viability (ATP), % of control: 80.1
- activity call: inactive

Dnaja1 (DnaJ heat shock protein family (Hsp40) member A1) #1
- GFP, % of control: 83.6
- viability (ATP), % of control: 86.6
- activity call: inactive

Dnaja1 (DnaJ heat shock protein family (Hsp40) member A1) #2
- GFP, % of control: 86
- viability (ATP), % of control: 78.1
- activity call: inactive

Dnaja1 (DnaJ heat shock protein family (Hsp40) member A1) #3
- GFP, % of control: 58.5
- viability (ATP), % of control: 104
- activity call: inactive

Ints12 (integrator complex subunit 12) #1
- GFP, % of control: 82.3
- viability (ATP), % of control: 87.1
- activity call: inactive

Ints12 (integrator complex subunit 12) #2
- GFP, % of control: 36.1
- viability (ATP), % of control: 49.2
- activity call: inactive

Ints12 (integrator complex subunit 12) #3
- GFP, % of control: 102
- viability (ATP), % of control: 107
- activity call: inactive

Tmem82 (transmembrane protein 82) #1
- GFP, % of control: 145
- viability (ATP), % of control: 67.3
- activity call: active

Tmem82 (transmembrane protein 82) #2
- GFP, % of control: 92.8
- viability (ATP), % of control: 73.2
- activity call: inactive

Tmem82 (transmembrane protein 82) #3
- GFP, % of control: 160
- viability (ATP), % of control: 143
- activity call: active

Acyp2 (acylphosphatase 2, muscle type) #1
- GFP, % of control: 59.8
- viability (ATP), % of control: 82.8
- activity call: inactive

Acyp2 (acylphosphatase 2, muscle type) #2
- GFP, % of control: 47.5
- viability (ATP), % of control: 38.9
- activity call: inactive

Acyp2 (acylphosphatase 2, muscle type) #3
- GFP, % of control: 73.7
- viability (ATP), % of control: 67.3
- activity call: inactive

Homer3 (homer scaffolding protein 3) #1
- GFP, % of control: 62.6
- viability (ATP), % of control: 51.8
- activity call: inactive

Homer3 (homer scaffolding protein 3) #2
- GFP, % of control: 105
- viability (ATP), % of control: 81.2
- activity call: inactive

Homer3 (homer scaffolding protein 3) #3
- GFP, % of control: 142
- viability (ATP), % of control: 94.6
- activity call: active

Eif6 (eukaryotic translation initiation factor 6) #1
- GFP, % of control: 92.8
- viability (ATP), % of control: 95.1
- activity call: inactive

Eif6 (eukaryotic translation initiation factor 6) #2
- GFP, % of control: 108
- viability (ATP), % of control: 79.9
- activity call: inactive

Eif6 (eukaryotic translation initiation factor 6) #3
- GFP, % of control: 85.7
- viability (ATP), % of control: 88.6
- activity call: inactive

Acsf2 (acyl-CoA synthetase family member 2) #1
- GFP, % of control: 103
- viability (ATP), % of control: 89.9
- activity call: inactive

Acsf2 (acyl-CoA synthetase family member 2) #2
- GFP, % of control: 62.5
- viability (ATP), % of control: 81.9
- activity call: inactive

Acsf2 (acyl-CoA synthetase family member 2) #3
- GFP, % of control: 111
- viability (ATP), % of control: 49
- activity call: inactive

Sf3b3 (splicing factor 3b, subunit 3) #1
- GFP, % of control: 93.8
- viability (ATP), % of control: 76
- activity call: inactive

Sf3b3 (splicing factor 3b, subunit 3) #2
- GFP, % of control: 125
- viability (ATP), % of control: 101
- activity call: active

5330439B14Rik (RIKEN cDNA 5330439B14 gene) #1
- GFP, % of control: 47.5
- viability (ATP), % of control: 34
- activity call: inactive

5330439B14Rik (RIKEN cDNA 5330439B14 gene) #2
- GFP, % of control: 88.2
- viability (ATP), % of control: 81.2
- activity call: inactive

5330439B14Rik (RIKEN cDNA 5330439B14 gene) #3
- GFP, % of control: 73.4
- viability (ATP), % of control: 108
- activity call: inactive
